No constants are given. Whether binding was seen depends on the method and setting. Some binding calls cover weakened binding; strength is not graded here.

The chains behind the UniProt entries cited, without tags or fusion partners.
UniProt Q8CFZ4: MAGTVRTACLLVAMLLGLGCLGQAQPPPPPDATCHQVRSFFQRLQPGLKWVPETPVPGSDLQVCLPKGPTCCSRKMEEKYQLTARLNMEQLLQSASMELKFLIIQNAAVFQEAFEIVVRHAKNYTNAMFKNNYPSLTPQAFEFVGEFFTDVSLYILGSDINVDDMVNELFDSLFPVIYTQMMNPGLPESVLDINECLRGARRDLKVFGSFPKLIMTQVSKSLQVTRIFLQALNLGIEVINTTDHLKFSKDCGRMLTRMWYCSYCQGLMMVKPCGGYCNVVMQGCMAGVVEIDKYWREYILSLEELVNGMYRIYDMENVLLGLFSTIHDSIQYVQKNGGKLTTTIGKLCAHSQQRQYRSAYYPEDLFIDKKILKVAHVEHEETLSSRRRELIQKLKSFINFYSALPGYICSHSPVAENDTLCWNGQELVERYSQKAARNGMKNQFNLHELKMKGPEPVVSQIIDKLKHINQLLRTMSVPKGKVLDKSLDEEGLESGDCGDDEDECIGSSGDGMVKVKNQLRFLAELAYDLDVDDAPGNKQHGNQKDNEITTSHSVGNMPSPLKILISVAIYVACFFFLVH

In patent US20240368303A1 one finds binding data, which are given here for one molecule.

Assay [1] has as its target recombinant cynomolgus GPC3 (cynomolgus). Kind of assay: ELISA. (In general: In an ELISA, binding on a coated surface is turned into a signal by an enzyme label.)
Assay [2] addresses recombinant mouse GPC3 (mouse) (UniProt Q8CFZ4). Briefly: ELISA.

B1: anti-GPC3 1A1 mAb (antibody, human IgG1, kappa, V domains shown)
VH: EVQLVQSGAEVKKPGASVKVSCKASGYTFTSYGISWVRQAPGQGLEWMGWISAYNGNTNYAQKLQGRVTMTTDTSTSTAYMELRSLRSDDTAVYYCARAGTPTQILRYFDWLSQPFDYWGQGTLVTVSS
VL: EIVLTQSPLSLPVTLGQPASISCRSSQSLVYSDGNTYLNWFHQRPGQSPRRLIYKVSNRDSGVPERFSGSGSGTDFTLKISRVEAEDVGVYYCMQSTHWPLTFGGGTKVEIKR
Turning to B1, the binding entry in assay [1] and in assay [2] was “binds” each time.
